# In the supplement of paper PMC10849652:
# Protein sequences, listed by entry. Tags and fused reporters are not part of them. Lines headed by an entry give the natural chain unless they say otherwise; changes in a name come on top.
# UniProt Q15843, whole entry, looked up: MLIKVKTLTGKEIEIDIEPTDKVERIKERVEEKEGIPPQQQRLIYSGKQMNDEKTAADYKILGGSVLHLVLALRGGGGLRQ
# UniProt Q9BYG3: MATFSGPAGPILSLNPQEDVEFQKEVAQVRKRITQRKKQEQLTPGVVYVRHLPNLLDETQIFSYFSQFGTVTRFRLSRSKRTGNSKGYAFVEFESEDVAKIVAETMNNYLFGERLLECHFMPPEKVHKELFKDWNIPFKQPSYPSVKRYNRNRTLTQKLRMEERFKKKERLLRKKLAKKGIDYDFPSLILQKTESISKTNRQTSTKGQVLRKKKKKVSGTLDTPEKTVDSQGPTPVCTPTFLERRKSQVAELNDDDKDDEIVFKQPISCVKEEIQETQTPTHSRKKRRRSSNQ
# UniProt Q86X76: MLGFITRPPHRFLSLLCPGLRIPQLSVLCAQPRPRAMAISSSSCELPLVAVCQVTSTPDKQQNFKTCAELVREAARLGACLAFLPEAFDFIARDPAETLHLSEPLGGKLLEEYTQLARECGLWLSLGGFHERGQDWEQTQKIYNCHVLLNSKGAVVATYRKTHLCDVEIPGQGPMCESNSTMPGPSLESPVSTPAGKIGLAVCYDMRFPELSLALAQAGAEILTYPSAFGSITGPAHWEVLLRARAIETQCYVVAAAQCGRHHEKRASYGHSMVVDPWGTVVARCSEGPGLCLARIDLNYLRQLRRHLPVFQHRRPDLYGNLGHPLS
# UniProt Q9NX02: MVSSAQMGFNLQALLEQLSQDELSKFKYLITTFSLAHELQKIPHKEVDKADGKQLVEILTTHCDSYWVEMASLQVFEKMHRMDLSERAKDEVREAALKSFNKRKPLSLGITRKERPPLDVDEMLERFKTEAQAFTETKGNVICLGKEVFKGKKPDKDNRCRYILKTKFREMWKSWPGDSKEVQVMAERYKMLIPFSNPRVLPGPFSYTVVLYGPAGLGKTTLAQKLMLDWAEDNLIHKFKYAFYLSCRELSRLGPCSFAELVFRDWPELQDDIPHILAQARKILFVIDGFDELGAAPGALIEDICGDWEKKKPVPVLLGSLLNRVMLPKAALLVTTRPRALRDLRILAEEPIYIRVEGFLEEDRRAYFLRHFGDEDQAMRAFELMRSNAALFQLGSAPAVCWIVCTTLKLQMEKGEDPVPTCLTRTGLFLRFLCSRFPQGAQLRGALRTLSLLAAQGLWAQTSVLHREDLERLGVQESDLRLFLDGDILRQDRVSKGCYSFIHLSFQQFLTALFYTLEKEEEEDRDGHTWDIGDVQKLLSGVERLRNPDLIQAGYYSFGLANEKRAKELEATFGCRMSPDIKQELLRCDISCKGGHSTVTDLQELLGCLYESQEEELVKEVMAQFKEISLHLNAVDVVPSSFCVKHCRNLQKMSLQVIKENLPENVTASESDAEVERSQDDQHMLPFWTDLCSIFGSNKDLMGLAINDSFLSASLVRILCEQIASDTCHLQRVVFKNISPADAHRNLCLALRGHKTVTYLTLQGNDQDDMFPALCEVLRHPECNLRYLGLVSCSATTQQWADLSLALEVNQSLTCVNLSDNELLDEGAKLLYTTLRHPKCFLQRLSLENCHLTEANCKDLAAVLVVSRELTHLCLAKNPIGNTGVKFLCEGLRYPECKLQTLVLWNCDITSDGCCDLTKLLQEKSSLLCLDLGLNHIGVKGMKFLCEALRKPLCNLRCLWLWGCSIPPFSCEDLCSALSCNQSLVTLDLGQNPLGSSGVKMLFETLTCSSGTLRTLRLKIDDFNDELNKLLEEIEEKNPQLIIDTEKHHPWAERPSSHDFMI
# UniProt Q6NW34: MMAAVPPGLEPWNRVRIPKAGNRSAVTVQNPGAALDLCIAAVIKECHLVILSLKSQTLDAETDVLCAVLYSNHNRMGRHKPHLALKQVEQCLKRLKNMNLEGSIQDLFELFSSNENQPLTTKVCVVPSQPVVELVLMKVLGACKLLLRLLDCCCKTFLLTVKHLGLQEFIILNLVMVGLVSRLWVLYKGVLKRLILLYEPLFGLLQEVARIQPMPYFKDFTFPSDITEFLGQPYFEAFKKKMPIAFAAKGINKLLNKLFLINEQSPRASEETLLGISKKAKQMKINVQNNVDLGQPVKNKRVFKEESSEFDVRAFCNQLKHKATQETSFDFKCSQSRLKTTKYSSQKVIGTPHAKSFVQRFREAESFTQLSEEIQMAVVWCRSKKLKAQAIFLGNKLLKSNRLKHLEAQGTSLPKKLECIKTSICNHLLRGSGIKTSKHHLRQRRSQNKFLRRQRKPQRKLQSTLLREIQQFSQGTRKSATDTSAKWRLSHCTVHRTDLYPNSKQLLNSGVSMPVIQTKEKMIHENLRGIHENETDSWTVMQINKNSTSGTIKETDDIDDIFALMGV
# UniProt Q9Y697: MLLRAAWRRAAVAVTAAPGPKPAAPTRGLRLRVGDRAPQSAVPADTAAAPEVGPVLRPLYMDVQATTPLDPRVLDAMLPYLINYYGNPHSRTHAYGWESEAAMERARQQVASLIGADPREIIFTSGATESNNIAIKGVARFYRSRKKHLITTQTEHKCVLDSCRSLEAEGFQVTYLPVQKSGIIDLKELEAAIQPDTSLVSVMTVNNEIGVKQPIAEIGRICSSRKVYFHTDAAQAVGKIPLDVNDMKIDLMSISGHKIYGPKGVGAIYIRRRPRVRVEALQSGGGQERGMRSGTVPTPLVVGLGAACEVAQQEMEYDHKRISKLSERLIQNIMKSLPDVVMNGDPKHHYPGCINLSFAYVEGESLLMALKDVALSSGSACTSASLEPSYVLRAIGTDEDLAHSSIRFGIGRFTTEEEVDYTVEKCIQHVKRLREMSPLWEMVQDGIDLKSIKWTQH
# UniProt O95182, whole entry, looked up: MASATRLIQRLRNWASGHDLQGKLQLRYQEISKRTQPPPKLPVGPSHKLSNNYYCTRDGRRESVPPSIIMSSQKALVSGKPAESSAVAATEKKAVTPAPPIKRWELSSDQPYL
# UniProt Q14934: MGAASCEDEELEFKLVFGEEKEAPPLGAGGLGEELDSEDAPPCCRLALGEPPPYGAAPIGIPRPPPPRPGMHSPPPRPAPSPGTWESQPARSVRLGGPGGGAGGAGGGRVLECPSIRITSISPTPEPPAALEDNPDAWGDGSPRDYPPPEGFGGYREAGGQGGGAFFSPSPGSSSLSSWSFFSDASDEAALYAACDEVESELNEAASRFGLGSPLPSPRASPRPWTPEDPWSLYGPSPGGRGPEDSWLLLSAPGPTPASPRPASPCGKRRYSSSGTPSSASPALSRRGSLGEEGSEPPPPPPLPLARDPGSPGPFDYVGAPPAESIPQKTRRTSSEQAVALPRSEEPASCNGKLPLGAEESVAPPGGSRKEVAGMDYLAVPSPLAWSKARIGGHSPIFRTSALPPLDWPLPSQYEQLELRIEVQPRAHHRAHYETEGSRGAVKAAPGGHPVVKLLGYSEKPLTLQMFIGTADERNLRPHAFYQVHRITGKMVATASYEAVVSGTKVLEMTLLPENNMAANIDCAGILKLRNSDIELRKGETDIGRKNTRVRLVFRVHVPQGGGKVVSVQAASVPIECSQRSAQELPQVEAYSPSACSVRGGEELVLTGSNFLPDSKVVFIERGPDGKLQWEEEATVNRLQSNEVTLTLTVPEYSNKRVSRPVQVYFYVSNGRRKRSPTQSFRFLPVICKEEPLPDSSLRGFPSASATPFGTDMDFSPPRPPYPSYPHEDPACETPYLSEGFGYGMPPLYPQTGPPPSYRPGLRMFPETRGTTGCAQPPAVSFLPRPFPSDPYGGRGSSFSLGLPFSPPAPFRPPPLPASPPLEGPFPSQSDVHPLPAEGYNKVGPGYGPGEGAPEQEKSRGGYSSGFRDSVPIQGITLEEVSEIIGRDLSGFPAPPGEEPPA
# UniProt O94916: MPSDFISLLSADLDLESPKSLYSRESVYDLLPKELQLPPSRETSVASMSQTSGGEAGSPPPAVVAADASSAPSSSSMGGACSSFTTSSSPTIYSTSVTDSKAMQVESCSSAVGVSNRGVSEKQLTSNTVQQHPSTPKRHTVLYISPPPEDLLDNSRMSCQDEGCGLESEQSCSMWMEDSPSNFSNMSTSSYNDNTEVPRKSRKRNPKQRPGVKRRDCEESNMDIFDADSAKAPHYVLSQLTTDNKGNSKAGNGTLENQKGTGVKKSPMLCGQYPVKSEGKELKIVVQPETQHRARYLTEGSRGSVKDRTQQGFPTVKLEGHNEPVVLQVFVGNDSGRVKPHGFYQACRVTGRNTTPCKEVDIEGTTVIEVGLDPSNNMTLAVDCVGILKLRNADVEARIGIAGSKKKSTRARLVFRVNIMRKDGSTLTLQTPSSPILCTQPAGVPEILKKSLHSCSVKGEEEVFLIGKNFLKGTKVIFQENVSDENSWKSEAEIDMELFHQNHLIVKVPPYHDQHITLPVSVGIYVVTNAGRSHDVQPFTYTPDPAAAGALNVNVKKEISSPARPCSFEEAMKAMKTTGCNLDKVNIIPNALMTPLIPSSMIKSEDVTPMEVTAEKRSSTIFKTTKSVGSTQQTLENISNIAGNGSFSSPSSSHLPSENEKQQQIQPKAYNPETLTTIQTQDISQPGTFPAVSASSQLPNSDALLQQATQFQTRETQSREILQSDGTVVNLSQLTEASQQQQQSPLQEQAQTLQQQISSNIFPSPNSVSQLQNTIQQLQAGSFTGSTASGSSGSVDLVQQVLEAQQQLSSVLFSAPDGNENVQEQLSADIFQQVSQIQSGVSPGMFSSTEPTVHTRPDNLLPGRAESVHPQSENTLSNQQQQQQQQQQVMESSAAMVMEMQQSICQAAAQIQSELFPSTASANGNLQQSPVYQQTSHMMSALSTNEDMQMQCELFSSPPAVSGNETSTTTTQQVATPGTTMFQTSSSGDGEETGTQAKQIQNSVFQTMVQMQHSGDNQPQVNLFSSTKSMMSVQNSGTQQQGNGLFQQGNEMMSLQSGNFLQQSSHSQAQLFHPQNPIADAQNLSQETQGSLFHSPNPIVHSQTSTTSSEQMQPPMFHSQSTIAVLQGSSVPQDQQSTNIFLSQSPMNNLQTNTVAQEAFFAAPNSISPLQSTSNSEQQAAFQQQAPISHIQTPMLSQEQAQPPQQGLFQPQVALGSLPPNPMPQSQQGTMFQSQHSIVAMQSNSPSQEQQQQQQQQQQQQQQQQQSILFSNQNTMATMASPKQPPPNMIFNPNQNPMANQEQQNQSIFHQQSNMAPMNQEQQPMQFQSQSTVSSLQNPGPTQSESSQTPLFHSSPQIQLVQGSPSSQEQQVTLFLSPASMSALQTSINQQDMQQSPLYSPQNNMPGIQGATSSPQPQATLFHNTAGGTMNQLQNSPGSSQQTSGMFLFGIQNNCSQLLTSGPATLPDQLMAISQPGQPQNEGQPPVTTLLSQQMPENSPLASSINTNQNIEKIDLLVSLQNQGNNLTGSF
# UniProt P56556, whole entry, looked up: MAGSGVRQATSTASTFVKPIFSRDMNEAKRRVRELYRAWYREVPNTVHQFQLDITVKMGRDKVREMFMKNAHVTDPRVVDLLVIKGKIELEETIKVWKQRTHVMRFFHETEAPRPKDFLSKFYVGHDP
# UniProt Q8WX92, whole entry, looked up: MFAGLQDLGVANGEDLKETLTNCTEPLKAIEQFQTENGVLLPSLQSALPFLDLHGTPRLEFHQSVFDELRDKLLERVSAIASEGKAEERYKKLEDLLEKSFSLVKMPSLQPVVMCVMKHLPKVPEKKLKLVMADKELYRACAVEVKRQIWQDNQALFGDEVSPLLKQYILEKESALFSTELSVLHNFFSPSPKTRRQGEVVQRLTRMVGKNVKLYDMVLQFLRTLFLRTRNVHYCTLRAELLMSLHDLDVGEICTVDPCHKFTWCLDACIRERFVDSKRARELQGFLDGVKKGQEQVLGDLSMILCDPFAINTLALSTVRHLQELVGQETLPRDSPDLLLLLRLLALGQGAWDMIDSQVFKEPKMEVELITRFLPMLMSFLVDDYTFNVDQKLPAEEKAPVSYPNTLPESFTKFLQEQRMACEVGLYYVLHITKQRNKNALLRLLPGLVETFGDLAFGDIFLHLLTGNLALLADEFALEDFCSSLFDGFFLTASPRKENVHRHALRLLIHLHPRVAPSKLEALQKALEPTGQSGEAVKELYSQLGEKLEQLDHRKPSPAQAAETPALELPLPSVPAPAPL
# UniProt O75251, whole entry, looked up: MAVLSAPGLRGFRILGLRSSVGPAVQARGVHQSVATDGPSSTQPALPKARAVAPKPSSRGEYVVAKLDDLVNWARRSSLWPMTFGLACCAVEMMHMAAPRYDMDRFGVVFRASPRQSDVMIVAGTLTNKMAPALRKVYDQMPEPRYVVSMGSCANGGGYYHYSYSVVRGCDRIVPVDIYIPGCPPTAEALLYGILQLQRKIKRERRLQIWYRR
# UniProt Q8TDX7: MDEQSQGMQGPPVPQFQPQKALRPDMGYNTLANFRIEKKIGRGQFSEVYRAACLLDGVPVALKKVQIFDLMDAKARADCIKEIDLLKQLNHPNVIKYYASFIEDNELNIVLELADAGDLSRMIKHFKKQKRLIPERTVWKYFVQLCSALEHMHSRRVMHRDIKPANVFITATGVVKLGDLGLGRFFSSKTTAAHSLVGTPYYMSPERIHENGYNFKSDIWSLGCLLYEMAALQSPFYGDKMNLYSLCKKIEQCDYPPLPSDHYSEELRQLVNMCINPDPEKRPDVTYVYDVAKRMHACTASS
# This is one part of the list.
# Compound: C[C@H](C1=CC=C(C=C1)C(=O)NC2=C3C=CNC3=NC=C2)N
# Assay: log2 fold change, soluble protein after heating vs DMSO (PISA); higher = thermal stabilisation; K562 lysate, 10 uM; active = over 0.2 and 3.5 SD of the protein, either way, in both replicates (recomputed)
# Summary of the method: (§1)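 K562 pellets were dounce-homogenised in PBS pH 7.4 containing 1 mM MgCl2, and the crude extract, at 1 mg/mL protein, was exposed to 10 μM compound for 30 min. Aliquots were heated for 3 min across 48°C-58°C, pooled, brought to 0.5% NP-40 at 4°C and spun at 21,000xg for 90 min, with the supernatant taken as soluble protein. TMTpro 16plex LC-MS/MS with equalised channel sums quantified that protein. Values are log-two fold changes in thermal stability relative to solvent controls, taken from duplicates.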
row,Target,log2 fold change
1,NIPSNAP3A (UniProt Q9UFN0),active: 0.466
2,NEDD8 (UniProt Q15843),inactive: 0.19
3,NDUFAF4 (UniProt Q9P032),inactive: -0.013
4,NDUFV1 (UniProt P49821),inactive: -0.057
5,NEU1 (UniProt Q99519),inactive: -0.033
6,NDRG2 (UniProt Q9UN36),inactive: 0.035
7,NDUFAB1 (UniProt O14561),inactive: 0.056
8,NIFK (UniProt Q9BYG3),inactive: -0.027
9,NFU1 (UniProt Q9UMS0),inactive: 0.077
10,NDC80 (UniProt O14777),inactive: 0.019
11,NEDD1 isoform 3 (UniProt Q8NHV4),inactive: -0.027
12,NIP7 (UniProt Q9Y221),inactive: -0.073
13,NIT1 (UniProt Q86X76),inactive: -0.089
14,NDUFA10 (UniProt O95299),inactive: -0.065
15,NFIC (UniProt P08651),inactive: -0.361
16,NLRP2 (UniProt Q9NX02),inactive: 0.091
17,NEDD4 isoform 4 (UniProt P46934),inactive: -0.031
18,NDRG3 (UniProt Q9UGV2),inactive: 0.054
19,NFKBIE (UniProt O00221),inactive: 0.066
20,NEPRO (UniProt Q6NW34),inactive: -0.289

row,Target,log2 fold change
1,NDUFA11 (UniProt Q86Y39),inactive: -0.06
2,NGLY1 (UniProt Q96IV0),inactive: 0.038
3,NFS1 (UniProt Q9Y697),inactive: -0.034
4,NDUFA7 (UniProt O95182),inactive: 0.001
5,NFATC4 isoform 2 (UniProt Q14934),inactive: -0.187
6,NHP2 (UniProt Q9NX24),inactive: -0.203
7,NFATC3 (UniProt Q12968),inactive: -0.01
8,NFAT5 isoform 5 (UniProt O94916),inactive: -0.053
9,NGRN (UniProt Q9NPE2),inactive: -0.045
10,NDUFA6 (UniProt P56556),inactive: -0.01
11,NF2 (UniProt P35240),inactive: -0.09
12,NELFB isoform 2 (UniProt Q8WX92),inactive: 0.012
13,NDUFS7 (UniProt O75251),inactive: -0.012
14,NFX1 (UniProt Q12986),inactive: 0.035
15,NDUFB9 (UniProt Q9Y6M9),inactive: 0.04
16,NDUFB8 (UniProt O95169),inactive: 0.067
17,NF1 (UniProt P21359),inactive: -0.031
18,NIPSNAP2 (UniProt O75323),inactive: -0.019
19,NEK7 (UniProt Q8TDX7),inactive: -0.062
20,NKIRAS2 (UniProt Q9NYR9),inactive: 0.017

# Compound: C[C@H](Nc1ncnc2nc[nH]c12)c1cc2cccc(Cl)c2c(=O)n1-c1ccccc1 [duvelisib]
# Assay: as above
# Summary of the method: as §1
row,Target,log2 fold change
1,NIPSNAP3A (UniProt Q9UFN0),inactive: 0.03
2,NEDD8 (UniProt Q15843),inactive: 0.019
3,NDUFAF4 (UniProt Q9P032),inactive: -0.005
4,NDUFV1 (UniProt P49821),inactive: 0.003
5,NEU1 (UniProt Q99519),inactive: 0.012
6,NDRG2 (UniProt Q9UN36),inactive: 0.015
7,NDUFAB1 (UniProt O14561),inactive: -0.069
8,NIFK (UniProt Q9BYG3),inactive: 0.009
9,NFU1 (UniProt Q9UMS0),inactive: -0.015
10,NDC80 (UniProt O14777),inactive: -0.006
11,NEDD1 isoform 3 (UniProt Q8NHV4),inactive: 0.018
12,NIP7 (UniProt Q9Y221),inactive: 0.003
13,NIT1 (UniProt Q86X76),inactive: -0.08
14,NDUFA10 (UniProt O95299),inactive: 0.02
15,NFIC (UniProt P08651),inactive: -0.002
16,NLRP2 (UniProt Q9NX02),inactive: 0.005
17,NEDD4 isoform 4 (UniProt P46934),inactive: -0.005
18,NDRG3 (UniProt Q9UGV2),inactive: 0.034
19,NFKBIE (UniProt O00221),inactive: 0.03
20,NEPRO (UniProt Q6NW34),inactive: 0.125

row,Target,log2 fold change
1,NDUFA11 (UniProt Q86Y39),inactive: 0.02
2,NGLY1 (UniProt Q96IV0),inactive: -0.001
3,NFS1 (UniProt Q9Y697),inactive: 0.054
4,NDUFA7 (UniProt O95182),inactive: 0.002
5,NFATC4 isoform 2 (UniProt Q14934),inactive: -0.006
6,NHP2 (UniProt Q9NX24),inactive: 0.074
7,NFATC3 (UniProt Q12968),inactive: -0.004
8,NFAT5 isoform 5 (UniProt O94916),inactive: -0.041
9,NGRN (UniProt Q9NPE2),inactive: 0.111
10,NDUFA6 (UniProt P56556),inactive: 0.013
11,NF2 (UniProt P35240),inactive: -0.013
12,NELFB isoform 2 (UniProt Q8WX92),inactive: -0.026
13,NDUFS7 (UniProt O75251),inactive: 0.024
14,NFX1 (UniProt Q12986),inactive: -0.107
15,NDUFB9 (UniProt Q9Y6M9),inactive: 0.007
16,NDUFB8 (UniProt O95169),inactive: -0.029
17,NF1 (UniProt P21359),inactive: -0.001
18,NIPSNAP2 (UniProt O75323),inactive: -0.168
19,NEK7 (UniProt Q8TDX7),inactive: -0.026
20,NKIRAS2 (UniProt Q9NYR9),inactive: -0.019
